The list shows a part of the results. Most entries show no effect beyond the scatter of the controls.

By UniProt entry, the sequences of proteins in these tests, tags left out. Where a name states a change or a piece, a line headed by the entry shows the natural chain unless it says otherwise.
UniProt Q8N9V3: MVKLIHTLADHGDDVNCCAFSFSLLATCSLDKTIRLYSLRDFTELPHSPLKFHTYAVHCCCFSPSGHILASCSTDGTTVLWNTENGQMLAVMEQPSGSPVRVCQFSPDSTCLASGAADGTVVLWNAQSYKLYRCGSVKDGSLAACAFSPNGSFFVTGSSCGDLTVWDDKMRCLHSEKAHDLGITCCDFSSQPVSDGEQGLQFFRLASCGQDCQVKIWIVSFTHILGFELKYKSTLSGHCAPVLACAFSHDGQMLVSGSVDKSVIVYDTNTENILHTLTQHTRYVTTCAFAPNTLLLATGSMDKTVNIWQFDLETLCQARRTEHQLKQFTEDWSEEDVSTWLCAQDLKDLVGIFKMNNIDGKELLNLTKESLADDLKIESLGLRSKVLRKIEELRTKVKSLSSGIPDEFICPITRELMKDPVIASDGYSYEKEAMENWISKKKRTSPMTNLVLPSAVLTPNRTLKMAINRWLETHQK
UniProt Q8N436: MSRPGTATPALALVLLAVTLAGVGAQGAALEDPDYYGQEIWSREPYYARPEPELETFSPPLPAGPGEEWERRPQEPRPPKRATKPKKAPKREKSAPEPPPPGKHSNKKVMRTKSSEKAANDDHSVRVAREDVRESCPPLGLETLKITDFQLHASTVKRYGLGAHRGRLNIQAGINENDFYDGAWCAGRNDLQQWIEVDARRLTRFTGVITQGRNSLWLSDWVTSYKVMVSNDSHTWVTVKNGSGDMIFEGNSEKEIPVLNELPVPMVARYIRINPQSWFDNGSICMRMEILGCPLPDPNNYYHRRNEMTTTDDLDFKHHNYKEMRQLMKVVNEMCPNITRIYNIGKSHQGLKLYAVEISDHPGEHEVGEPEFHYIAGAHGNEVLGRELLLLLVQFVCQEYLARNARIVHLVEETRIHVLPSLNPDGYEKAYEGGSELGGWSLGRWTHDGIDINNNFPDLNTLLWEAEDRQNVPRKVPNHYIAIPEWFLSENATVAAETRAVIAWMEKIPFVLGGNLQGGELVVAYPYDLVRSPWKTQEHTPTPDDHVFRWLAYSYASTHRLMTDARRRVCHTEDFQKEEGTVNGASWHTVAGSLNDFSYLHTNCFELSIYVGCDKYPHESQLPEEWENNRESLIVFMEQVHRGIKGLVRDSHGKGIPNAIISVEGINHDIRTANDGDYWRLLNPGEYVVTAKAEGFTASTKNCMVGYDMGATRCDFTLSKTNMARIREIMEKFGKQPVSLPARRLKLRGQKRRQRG
UniProt Q8N7R7: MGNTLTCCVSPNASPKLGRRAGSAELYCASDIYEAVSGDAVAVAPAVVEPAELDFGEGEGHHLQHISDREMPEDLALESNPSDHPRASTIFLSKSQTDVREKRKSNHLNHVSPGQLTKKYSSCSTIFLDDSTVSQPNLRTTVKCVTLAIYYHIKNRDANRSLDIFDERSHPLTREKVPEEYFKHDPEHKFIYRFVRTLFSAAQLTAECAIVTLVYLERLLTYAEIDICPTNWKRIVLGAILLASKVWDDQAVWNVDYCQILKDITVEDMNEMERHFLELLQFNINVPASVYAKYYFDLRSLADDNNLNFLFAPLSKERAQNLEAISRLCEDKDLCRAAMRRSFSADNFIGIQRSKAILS
UniProt Q8N567: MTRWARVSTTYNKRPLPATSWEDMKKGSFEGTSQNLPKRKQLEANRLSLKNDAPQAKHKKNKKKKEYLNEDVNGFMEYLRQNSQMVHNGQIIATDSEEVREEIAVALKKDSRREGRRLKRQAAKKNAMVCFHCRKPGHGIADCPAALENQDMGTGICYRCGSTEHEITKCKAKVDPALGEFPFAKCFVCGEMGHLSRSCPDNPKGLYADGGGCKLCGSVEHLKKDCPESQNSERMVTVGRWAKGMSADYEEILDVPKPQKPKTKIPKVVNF
UniProt Q8NBT2: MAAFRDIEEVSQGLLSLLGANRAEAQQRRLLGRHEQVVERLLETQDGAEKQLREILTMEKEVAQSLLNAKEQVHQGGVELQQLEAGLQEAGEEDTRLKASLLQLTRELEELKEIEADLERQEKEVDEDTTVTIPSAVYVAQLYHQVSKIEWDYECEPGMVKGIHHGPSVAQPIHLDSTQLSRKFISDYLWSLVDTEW
UniProt Q8N5C6: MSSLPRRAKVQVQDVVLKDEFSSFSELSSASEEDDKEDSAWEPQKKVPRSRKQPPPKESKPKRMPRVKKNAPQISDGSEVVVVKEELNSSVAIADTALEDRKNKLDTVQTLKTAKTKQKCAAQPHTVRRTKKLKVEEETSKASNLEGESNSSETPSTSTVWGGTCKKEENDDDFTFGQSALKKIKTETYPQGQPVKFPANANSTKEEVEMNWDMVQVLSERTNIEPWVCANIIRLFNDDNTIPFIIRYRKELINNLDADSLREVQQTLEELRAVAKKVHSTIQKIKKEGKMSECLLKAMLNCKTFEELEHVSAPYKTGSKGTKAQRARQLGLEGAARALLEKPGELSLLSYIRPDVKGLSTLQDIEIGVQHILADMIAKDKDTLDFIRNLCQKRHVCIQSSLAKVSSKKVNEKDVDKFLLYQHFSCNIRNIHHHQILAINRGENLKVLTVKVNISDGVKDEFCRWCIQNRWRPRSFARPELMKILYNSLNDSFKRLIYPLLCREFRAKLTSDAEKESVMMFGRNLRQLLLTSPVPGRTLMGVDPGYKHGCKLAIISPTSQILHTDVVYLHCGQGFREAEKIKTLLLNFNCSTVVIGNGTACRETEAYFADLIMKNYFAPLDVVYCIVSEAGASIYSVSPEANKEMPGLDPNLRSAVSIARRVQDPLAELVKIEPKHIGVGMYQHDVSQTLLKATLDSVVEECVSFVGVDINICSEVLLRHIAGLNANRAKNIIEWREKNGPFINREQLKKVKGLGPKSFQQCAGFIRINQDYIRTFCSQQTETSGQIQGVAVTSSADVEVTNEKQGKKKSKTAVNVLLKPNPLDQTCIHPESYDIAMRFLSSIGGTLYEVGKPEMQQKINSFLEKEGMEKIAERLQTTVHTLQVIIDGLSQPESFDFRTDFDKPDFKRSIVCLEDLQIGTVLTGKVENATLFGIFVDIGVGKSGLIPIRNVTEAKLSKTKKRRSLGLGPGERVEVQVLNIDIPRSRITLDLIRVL
UniProt Q8N4L2: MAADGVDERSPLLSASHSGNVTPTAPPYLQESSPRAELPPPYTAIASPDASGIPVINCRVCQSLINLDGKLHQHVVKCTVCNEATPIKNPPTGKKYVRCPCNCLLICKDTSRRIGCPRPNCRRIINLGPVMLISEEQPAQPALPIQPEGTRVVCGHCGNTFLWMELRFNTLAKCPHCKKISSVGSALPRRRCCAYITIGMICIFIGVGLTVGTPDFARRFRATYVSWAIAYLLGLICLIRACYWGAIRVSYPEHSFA
UniProt Q8NFG4: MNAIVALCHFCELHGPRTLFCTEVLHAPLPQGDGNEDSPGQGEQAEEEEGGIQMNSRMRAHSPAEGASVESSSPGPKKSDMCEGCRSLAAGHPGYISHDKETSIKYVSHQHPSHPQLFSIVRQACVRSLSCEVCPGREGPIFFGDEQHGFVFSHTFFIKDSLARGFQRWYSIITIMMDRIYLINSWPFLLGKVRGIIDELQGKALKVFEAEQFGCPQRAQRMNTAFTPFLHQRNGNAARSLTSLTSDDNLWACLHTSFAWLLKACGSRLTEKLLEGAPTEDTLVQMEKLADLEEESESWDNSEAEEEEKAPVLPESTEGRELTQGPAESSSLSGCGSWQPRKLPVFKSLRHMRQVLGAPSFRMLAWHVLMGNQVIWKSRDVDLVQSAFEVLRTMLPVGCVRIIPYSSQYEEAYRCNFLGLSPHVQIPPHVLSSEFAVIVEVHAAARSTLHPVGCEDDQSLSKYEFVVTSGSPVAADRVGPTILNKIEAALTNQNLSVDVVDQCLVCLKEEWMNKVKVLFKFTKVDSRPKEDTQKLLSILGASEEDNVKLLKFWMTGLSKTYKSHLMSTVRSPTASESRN
UniProt Q8TB03: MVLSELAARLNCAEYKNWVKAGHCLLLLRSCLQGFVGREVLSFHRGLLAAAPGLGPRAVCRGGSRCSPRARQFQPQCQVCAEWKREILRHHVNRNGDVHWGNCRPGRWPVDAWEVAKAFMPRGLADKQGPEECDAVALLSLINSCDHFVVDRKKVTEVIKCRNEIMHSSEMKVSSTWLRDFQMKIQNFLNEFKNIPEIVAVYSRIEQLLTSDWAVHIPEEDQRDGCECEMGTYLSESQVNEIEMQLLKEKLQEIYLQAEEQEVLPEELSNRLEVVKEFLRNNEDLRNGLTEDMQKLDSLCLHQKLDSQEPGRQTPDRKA
UniProt Q8NE71: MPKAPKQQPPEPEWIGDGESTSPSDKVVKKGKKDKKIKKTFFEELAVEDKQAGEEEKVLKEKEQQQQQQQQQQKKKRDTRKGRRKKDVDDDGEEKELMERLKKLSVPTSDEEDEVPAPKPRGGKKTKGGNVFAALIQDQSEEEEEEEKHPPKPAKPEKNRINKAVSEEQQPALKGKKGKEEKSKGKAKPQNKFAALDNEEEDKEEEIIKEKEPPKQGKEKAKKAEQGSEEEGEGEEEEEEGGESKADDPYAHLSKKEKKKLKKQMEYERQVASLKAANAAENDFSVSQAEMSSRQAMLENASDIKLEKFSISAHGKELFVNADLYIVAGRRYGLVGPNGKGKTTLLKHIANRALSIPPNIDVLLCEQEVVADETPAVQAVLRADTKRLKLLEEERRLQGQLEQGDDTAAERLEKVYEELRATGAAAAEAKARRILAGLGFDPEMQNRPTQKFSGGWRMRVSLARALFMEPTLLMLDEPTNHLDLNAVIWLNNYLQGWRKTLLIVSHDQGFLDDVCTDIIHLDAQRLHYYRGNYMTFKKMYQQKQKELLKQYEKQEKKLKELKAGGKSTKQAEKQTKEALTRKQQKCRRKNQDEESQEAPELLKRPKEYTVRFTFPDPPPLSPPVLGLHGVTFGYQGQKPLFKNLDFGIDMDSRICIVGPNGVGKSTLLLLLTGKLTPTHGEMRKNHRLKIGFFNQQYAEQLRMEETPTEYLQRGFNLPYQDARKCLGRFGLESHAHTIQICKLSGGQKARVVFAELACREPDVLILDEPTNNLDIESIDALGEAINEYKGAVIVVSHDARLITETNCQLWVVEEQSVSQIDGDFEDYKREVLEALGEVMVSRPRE
UniProt Q8N9N7: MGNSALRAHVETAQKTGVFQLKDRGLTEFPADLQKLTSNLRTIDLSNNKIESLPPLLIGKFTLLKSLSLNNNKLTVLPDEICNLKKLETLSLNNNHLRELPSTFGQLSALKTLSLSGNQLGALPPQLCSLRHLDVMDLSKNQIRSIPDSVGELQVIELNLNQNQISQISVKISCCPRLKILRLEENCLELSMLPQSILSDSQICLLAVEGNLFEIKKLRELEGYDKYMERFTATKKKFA
UniProt Q8N9N5: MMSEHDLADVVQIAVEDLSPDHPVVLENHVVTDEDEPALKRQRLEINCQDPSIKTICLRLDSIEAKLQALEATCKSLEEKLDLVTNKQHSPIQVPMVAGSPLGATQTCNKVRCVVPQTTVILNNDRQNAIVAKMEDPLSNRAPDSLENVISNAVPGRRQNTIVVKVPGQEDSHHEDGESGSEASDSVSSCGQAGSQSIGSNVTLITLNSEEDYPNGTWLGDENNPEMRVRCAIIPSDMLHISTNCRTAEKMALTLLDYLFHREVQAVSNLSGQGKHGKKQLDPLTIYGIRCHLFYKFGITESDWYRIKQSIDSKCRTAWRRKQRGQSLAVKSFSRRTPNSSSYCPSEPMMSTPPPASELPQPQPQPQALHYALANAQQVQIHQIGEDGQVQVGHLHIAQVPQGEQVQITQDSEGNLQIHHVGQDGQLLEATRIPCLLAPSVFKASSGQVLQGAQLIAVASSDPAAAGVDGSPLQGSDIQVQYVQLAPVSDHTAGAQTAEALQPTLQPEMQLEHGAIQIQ
UniProt Q8ND90: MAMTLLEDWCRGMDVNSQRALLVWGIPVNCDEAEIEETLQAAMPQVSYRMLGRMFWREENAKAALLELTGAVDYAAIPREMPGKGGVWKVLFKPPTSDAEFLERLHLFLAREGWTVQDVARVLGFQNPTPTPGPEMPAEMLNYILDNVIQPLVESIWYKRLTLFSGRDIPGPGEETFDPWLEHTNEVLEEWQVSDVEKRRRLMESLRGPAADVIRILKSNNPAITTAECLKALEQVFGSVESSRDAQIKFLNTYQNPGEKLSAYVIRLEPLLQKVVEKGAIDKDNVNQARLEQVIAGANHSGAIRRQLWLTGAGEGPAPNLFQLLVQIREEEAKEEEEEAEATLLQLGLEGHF
UniProt Q8N9B4: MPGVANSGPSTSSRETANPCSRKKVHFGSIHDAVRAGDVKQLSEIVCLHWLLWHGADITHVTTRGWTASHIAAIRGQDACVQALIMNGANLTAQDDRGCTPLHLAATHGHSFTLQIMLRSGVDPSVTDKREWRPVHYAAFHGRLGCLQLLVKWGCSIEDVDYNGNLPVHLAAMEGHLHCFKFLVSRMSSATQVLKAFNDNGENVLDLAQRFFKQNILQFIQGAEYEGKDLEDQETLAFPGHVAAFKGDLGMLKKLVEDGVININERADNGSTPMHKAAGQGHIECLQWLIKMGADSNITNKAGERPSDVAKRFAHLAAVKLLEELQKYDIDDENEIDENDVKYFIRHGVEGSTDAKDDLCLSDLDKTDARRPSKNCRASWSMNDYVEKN

Compound in this assay: CN[C@@H]1C[C@H]2O[C@@](C)([C@@H]1OC)n1c3ccccc3c3c4c(c5c6ccccc6n2c5c31)C(=O)NC4 [staurosporine]
The assay is described as follows: log2 fold change of tryptic peptide abundance, ligand vs vehicle (limited proteolysis) (log2 ratio); higher = more trypsin-susceptible (destabilized). Conditions: ligand concentration: 20 uM; sample: K562 cleared lysate; digestion: 4 min, 22 C (HT-PELSA RT4min, Orbitrap Astral).
As to “WDSUB1 (peptide sequence: EAMENWISKK, peptide start residue: 432) (UniProt Q8N9V3)”, the log2 fold change was -0.244. To “UniProt Q8N436 (peptide sequence: IREIMEK, peptide start residue: 726)” belongs 0.104. For “NCOA7 (peptide sequence: DTLKECLSLDPEER, peptide start residue: 434) (UniProt Q8NI08)”, the log2 fold change was -0.157. To “FLAD1 (peptide sequence: DCTALLHLFHAAVQR, peptide start residue: 408) (UniProt Q8NFF5)” belongs 0.401. Under “ENGASE (peptide sequence: MEAAAVTVTR, peptide start residue: 1) (UniProt Q8NFI3)” stands -0.0599. For the target “CHCHD4 (peptide sequence: KPAEQAEETAPIEATATK, peptide start residue: 119) (UniProt Q8N4Q1)”, the log2 fold change is -0.00616. As for “CCNYL1 (peptide sequence: ASTIFLSK, peptide start residue: 65) (UniProt Q8N7R7)”, the log2 fold change is 0.0316.

For “ZCCHC9 (peptide sequence: AKVDPALGEFPFAK, peptide start residue: 172) (UniProt Q8N567)”, the log2 fold change is -0.329.

As for “UniProt Q8NC44 (peptide sequence: AEANALHHK, peptide start residue: 249)”, the log2 fold change amounted to 0.0913. For “UniProt Q8NBJ5 (peptide sequence: ALQAQEIECR, peptide start residue: 361)”, the log2 fold change turned out to be 0.573. Take “SPC24 (peptide sequence: HEQVVER, peptide start residue: 34) (UniProt Q8NBT2)”: the log2 fold change is 0.089. Take “SRBD1 (peptide sequence: KEENDDDFTFGQSALK, peptide start residue: 167) (UniProt Q8N5C6)”: the log2 fold change stood at 0.319.

“PIP4P2 (peptide sequence: CTVCNEATPIKNPPTGK, peptide start residue: 78) (UniProt Q8N4L2)”: the log2 fold change was -0.506. In the case of “RNF214 (peptide sequence: SDEGLPDGLSTK, peptide start residue: 27) (UniProt Q8ND24)”, the log2 fold change turned out to be 0.11. Consider “EIF1AD (peptide sequence: EGFWPEAFSEVAEKHNNR, peptide start residue: 99) (UniProt Q8N9N8)”, for which the log2 fold change is -0.227.

For the target “FLCN (peptide sequence: QVLGAPSFR, peptide start residue: 354) (UniProt Q8NFG4)”, the log2 fold change was determined as 0.254. “CXorf38 (peptide sequence: LDSQEPGR, peptide start residue: 305) (UniProt Q8TB03)”: the log2 fold change was -0.156. Under “ABCF1 (peptide sequence: RYGLVGPNGK, peptide start residue: 331) (UniProt Q8NE71)” stands 0.525; under “LRRC57 (peptide sequence: HLDVMDLSK, peptide start residue: 132) (UniProt Q8N9N7)”, 0.288; under “BANP (peptide sequence: LEINCQDPSIK, peptide start residue: 44) (UniProt Q8N9N5)”, -0.217. On to “PUM2 (peptide sequence: MIDMAEPAQR, peptide start residue: 1008) (UniProt Q8TB72)”, for which the log2 fold change turned out to be 0.448. To “OXR1 (peptide sequence: KMTGSNTEEIDSR, peptide start residue: 303) (UniProt Q8N573)” belongs -0.579. To “EHBP1 (peptide sequence: RYELLNR, peptide start residue: 1148) (UniProt Q8NDI1)” belongs 0.498; to “UniProt Q8ND90 (peptide sequence: LEQVIAGANHSGAIRR, peptide start residue: 291)”, -0.584. To “TSPYL6 (peptide sequence: SESEVIAEGK, peptide start residue: 137) (UniProt Q8N831)” belongs 0.206; to “NPLOC4 (peptide sequence: GKFVALENISCK, peptide start residue: 178) (UniProt Q8TAT6)”, -0.505. In the case of “NFATC2IP (peptide sequence: ILLLFGETELSPTATPR, peptide start residue: 304) (UniProt Q8NCF5)”, the log2 fold change was -0.199. “UniProt Q8N9B4 (peptide sequence: LLEELQK, peptide start residue: 690)”: the log2 fold change is -0.0731.

For the origin of these results see the supplement of paper PMC12819154, “High-throughput peptide-centric local stability assay extends protein–ligand identification to membrane proteins, tissues and bacteria” (Nature Structural & Molecular Biology, 2025).
